According to paper PMC6322723:
No constants are given. Whether binding was seen depends on the method and setting. For some assays here: Binding seen in cells or lysates may run through a third protein. Some binding calls cover weakened binding; strength is not graded here.

B1: GABAA receptor δ subunit, endogenous in mouse cerebellum (receptor, UniProt P22933 25-449)
chain: MNDIGDYVGSNLEISWLPNLDGLMEGYARNFRPGIGGAPVNVALALEVASIDHISEANMEYTMTVFLHQSWRDSRLSYNHTNETLGLDSRFVDKLWLPDTFIVNAKSAWFHDVTVENKLIRLQPDGVILYSIRITSTVACDMDLAKYPLDEQECMLDLESYGYSSEDIVYYWSENQEQIHGLDRLQLAQFTITSYRFTTELMNFKSAGQFPRLSLHFQLRRNRGVYIIQSYMPSVLLVAMSWVSFWISQAAVPARVSLGITTVLTMTTLMVSARSSLPRASAIKALDVYFWICYVFVFAALVEYAFAHFNADYRKKRKAKVKVTKPRAEMDVRNAIVLFSLSAAGVSQELAISRRQGRVPGNLMGSYRSVEVEAKKEGGSRPGGPGGIRSRLKPIDADTIDIYARAVFPAAFAAVNIIYWAAYTM

What was measured:
[1] = biological target: extracellular domain of the δ subunit of GABAA receptor (amino acid 17–248), two-hybrid bait (UniProt P18506); experiment: two-hybrid; Matchmaker Gold Yeast Two-Hybrid screen; bait extra-δ (17-248) in pGBKT7, prey mouse cerebellar cDNA library in pGADT7; reporters AUR1-C, ADE2, HIS3, MEL1
[2] = biological target: transthyretin (TTR), endogenous in mouse cerebellum (mouse (endogenous in cerebellum)) (UniProt P07309); experiment: co-IP; adult mouse cerebellum extract (25 mM Tris/HCl pH 7.4, 150 mM NaCl, 1% NP-40, 1 mM EDTA, 5% glycerol) immunoprecipitated with anti-TTR antibody, normal IgG as control; blotted with rabbit anti-δ antibody

binding [1] | binding [2] | Molecule
binds | – | transthyretin (TTR) positive clone encoding amino acid 73–147, two-hybrid prey (from UniProt P07309 73-147) (domain or fragment)
– | binds | B1
